PubChem BioAssay AID2417 (National Center for Advancing Translational Sciences (NCATS), 2010)
About 4,300 (3.1%) of roughly 140,000 compounds were called active. Inconclusive means that the source gave no clear call. Such entries were picked first, then a sample of the others.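 The calls were made as follows: active = readout at or below -70, meaning at least 70% loss of cells showing the perinucleolar compartment, a nuclear body marking cancer cells; inconclusive = readout between -30 and a set limit; inactive = the rest.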

Assay: High Content Assay for Compounds that inhibit the Assembly of the Perinucleolar Compartment;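 also: plate controls were DMSO wells for no effect and camptothecin positive control wells for full effect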
Conditions: PC3M PTB-GFP, PNC prevalence imaging, 16 h; at 10 µM; hits give low values
Method in brief: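 Compounds are pinned in duplicate onto adhered PC3M cells stably expressing GFP-tagged PTB and incubated 16 h at 37 C. Cells are then fixed, nuclei stained with Hoechst, and PNC-positive cells counted.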

SMILES	activity change (PNC), negative = inhibition
CCOC(=O)N1CCC(c2nc(C)sc2C(=O)O)CC1	inconclusive: -34.1%
Cc1ccc(Nc2cc(C)nc3c(C)ccc([N+](=O)[O-])c23)cc1	inactive: 23%
CCOC(=O)c1cn(CC)c2ccc(S(=O)(=O)N3CC(C)CC(C)C3)cc2c1=O (stereo unspecified)	inactive: 24.3%
Cc1cc(C)c2c(c1)/C(=N/NC(=O)c1cc(C)oc1C)CCC2	inactive: 17.9%
COc1cc(S(=O)(=O)n2ccc(C)n2)c(OC)cc1Cl	inconclusive: -44.7%
CC(=C1C2C=CC1C1C(=O)NC(=O)C21)c1ccccc1 (stereo unspecified)	inactive: 0.155%
Cc1ccc2cccc(S(=O)(=O)n3nc(C)cc3C)c2n1	inconclusive: -71%
COC(=O)Nc1nc(C)c(C(=O)c2ccccc2)s1	inconclusive: -35%
COc1ccc(-c2nc(NC(=O)CSc3nnc4ccccn34)ns2)cc1	inactive: -20.1%
O=C(OCC(=O)c1ccccc1Cl)c1cnccn1	inactive: 0.32%
CCn1cc(/C=N/NS(=O)(=O)c2ccc(C)cc2)c(C)n1	inconclusive: -44.1%
CC(=O)c1cc2c(C)cc(=O)oc2cc1O	inconclusive: -30.1%
CC(=O)NC(CC(=O)Nc1cccc(S(=O)(=O)N2CCCCC2)c1)c1ccccc1 (stereo unspecified)	inconclusive: -33%
Cc1ccc(S(=O)(=O)N(C)C)cc1NC(=O)COC(=O)/C(=C/c1ccc(F)cc1)c1cccs1	inconclusive: -36.5%
NC(=O)CNC(=O)[C@@H]1CC2(CC(c3cccc([N+](=O)[O-])c3)=NO2)CN1C(=O)c1ccccc1 (stereo partly specified)	inactive: 0.935%
CCCn1c(Sc2nc3c(c(=O)[nH]c(=O)n3C)n2CCC)nc2c1c(=O)[nH]c(=O)n2C	inactive: 13.4%
CSc1nnc2c3ccccc3n(Cc3ccccc3)c2n1	inconclusive: -60.6%
CCC(=O)NC(=S)Nc1ccc(-c2nc3ccccc3s2)cc1	inactive: -7.4%
CC(=O)Nc1cccc(/C(C)=N/NC(=O)c2c(-c3ccccc3Cl)noc2C)c1	active: -109%

Single values from the list:
activity change (PNC), negative = inhibition with CC(=C1C2C=CC1C1C(=O)NC(=O)C21)c1ccccc1 (stereo unspecified) is entered as inactive: 0.155%
activity change (PNC), negative = inhibition with CC(=O)c1cc2c(C)cc(=O)oc2cc1O is entered as inconclusive: -30.1%
activity change (PNC), negative = inhibition with COC(=O)Nc1nc(C)c(C(=O)c2ccccc2)s1 is entered as inconclusive: -35%
activity change (PNC), negative = inhibition with CCOC(=O)c1cn(CC)c2ccc(S(=O)(=O)N3CC(C)CC(C)C3)cc2c1=O (stereo unspecified) is entered as inactive: 24.3%

More compounds follow.

SMILES	activity change (PNC), negative = inhibition
COc1ccc(CN(C(=O)c2oc3ccccc3c2C)C2CCS(=O)(=O)C2)cc1OC (stereo unspecified)	inconclusive: -40.4%
O=C(O)Cn1cc(C(=S)N2CCOCC2)c2ccccc21	inconclusive: -53.9%
Cc1noc(C)c1C(=O)N1CCN(CCc2ccccc2)CC1	active: -102%
CCc1ccc(N/C(SC)=C(/C#N)C(N)=O)cc1	inactive: -18.7%
Cc1nc(NC(=O)COc2ccc(Cl)cc2)sc1C(=O)N(C)C	inconclusive: -30.1%
CCOc1ccc(/C=C/C(=O)NCc2ccccc2)cc1	inconclusive: -48.7%
O=C(NCc1ccccc1)c1ccc(-c2ccccc2C(F)(F)F)o1	active: -84.2%
CCn1nc(C)c(/C=N\NC(=O)c2ccc3c(c2)OCO3)c1C	inconclusive: -34%
COc1ccnc(N2CCN(c3ccc(Cl)cc3)CC2)c1C#N	inconclusive: -52.3%
CCC(=O)Nc1ccc(C(=O)CSc2nnc(-c3ccc(O)cc3)n2CC2CCCO2)cc1 (stereo unspecified)	inconclusive: -72.6%
O=C(Nc1cccc(C(F)(F)F)c1)c1ccc2nc(N3C(=O)CCC3=O)sc2c1	inactive: 112%
CCOC(=O)C1CCCN(CC(O)COc2cccc(C)c2)C1 (stereo unspecified)	inactive: -13.4%
O=C(OCCN1C(=O)c2ccccc2C1=O)c1ccc(S(=O)(=O)N2CCCCCC2)cc1	inactive: -3.52%
O=c1c2cnn(-c3ccccc3)c2nc(-c2cccs2)n1-c1cccc(Cl)c1	inactive: 6.14%
Cc1cc2ccccc2n1CCNC(=O)c1ccc(S(=O)(=O)N2CCOCC2)cc1	inconclusive: -53.4%
Cc1ccc(CNCc2cc3c(C(C)(C)C)nn(-c4ccccc4)c3[nH]c2=O)cc1	inconclusive: -43.2%
Cc1ccc(C(C)C)c(OCc2nnc3n2CCCCC3)c1	inconclusive: -47.2%
COc1cc(NC(=O)c2ccc(C)cc2)c(OC)cc1NC(=O)CN1CCOCC1	inconclusive: -56.2%
N#C[C@H]1[C@H](c2ccccc2)[C@](C#N)(C(=O)c2ccccc2)[C@@H]2C=Cc3ccccc3N21	inconclusive: -30.1%

SMILES	activity change (PNC), negative = inhibition
Cc1ccc(NC(=O)CSc2nc(-c3ccco3)cc(C(F)(F)F)n2)cc1C	inconclusive: -63%
Cc1nn(C)cc1/C=C/C(=O)c1ccc(O)cc1	inconclusive: -38.4%
COc1ccc(-c2nc3ccccc3c(=O)n2CCCn2ccnc2)cc1	inconclusive: -36.5%
CC1=C(C(=O)Nc2ccccc2)C(c2cccc([N+](=O)[O-])c2)Nc2nc3ccccc3n21 (stereo unspecified)	inconclusive: -44.5%
Cc1nnc(C)n1/N=C/c1cc(Br)cc(Br)c1O	inconclusive: -37.2%
COc1cccc(N2C(=O)CC(Nc3ccc(N4CCOCC4)cc3)C2=O)c1 (stereo unspecified)	inactive: -5.8%
O=C1c2ccccc2C(=O)N1CCCCN(C(=O)c1cc([N+](=O)[O-])ccc1Cl)c1ccc(Cl)cc1	inconclusive: -55.7%
COc1ccc(C2=Nn3c(nnc3-c3ccc(OC)cc3)SC2)cc1	inconclusive: -67.5%
N#C/C(=C/c1ccc(Cl)cc1)NC(=O)c1ccccc1	inconclusive: -69.2%
COc1cnc(SCc2ccc(Cl)cc2Cl)nc1Cl	inactive: 17.2%
Cn1c(N)c(C(=O)COC(=O)c2cccc(S(=O)(=O)N3CCCCC3)c2)c(=O)n(C)c1=O	inconclusive: -76.3%
Cc1nc2ccccc2cc1C(=O)N/N=C/c1ccc([N+](=O)[O-])cc1	inconclusive: -39.5%
O=C(CCCOc1ccccc1)Nc1cccc(C(=O)O)c1	inactive: 11.1%
COc1cc(NC(=O)C/C(C)=N/NC(=O)C(OC)c2ccccc2)c(OC)cc1Cl (stereo unspecified)	inconclusive: -50.6%
CCn1cc(C(=O)O)c(=O)c2cc3c(cc21)OCO3	inconclusive: -38.7%
O=C1c2cccnc2C(O)N1Cc1ccco1 (stereo unspecified)	inconclusive: -50.8%
O=C(O)C=C1C2CC3CC(C2)CC1C3	active: -82%
CC1(C)C2CCC1(CS(=O)(=O)Nc1ccc(S(=O)(=O)N3CCCCC3)cc1)C(=O)C2 (stereo unspecified)	inconclusive: -38.3%
